The values that follow come from PubChem BioAssay AID330 (DTP/NCI, 2004).

The structures appear in SMILES notation. The list is a part of this screen's results and no random one: it is rich in T/C values a quarter to a half above the control, in often repeated tests (any T/C) and in doses without a T/C. Further doses and runs are listed elsewhere. T/C is the treated group as % of the vehicle group. Some entries give survivors of the animals treated and no T/C: the source files T/C as zero there, which appears to mark a toxic dose or a test without result, not a measured value. Some survivor counts are full or nearly so, which does not show that the dose was tolerated: the source hardly ever lists a survival T/C far under the control, and the zero likely stands for such cases as well. Counts of survivors are from the toxicity check (mostly the fifth day) where no day follows; animals may have died later. Schedules are NCI's codes, taken here to give the interval after Q, in days (D) or hours (H), and the number of doses after X. Some entries were tested several times; the results are listed from low to high. Where survival is the endpoint, the PubChem record calls one and a half times the control and up active, and a quarter to a half above the control has no call in these data; cut-offs in other NCI protocols can differ. Some T/C values are followed by the survivors on the day toxicity was checked, most often the fifth; where none is given, no animal had died by that day.

For the experiment, the system named is P388 leukemia ip, CD2F1 mice, survival T/C. Put plainly: NCI In Vivo Anticancer Drug Screen. Data for tumor model P388 Leukemia (intraperitoneal) in CD2F1 (CDF1) mice. The settings on record: T/C endpoint: median survival time, higher T/C = longer survival.
[1] abbreviates: dose: 100.0 mg/kg/injection, schedule: Q01DX005 (ip), vehicle: Klucel (hydroxypropylcellulose) (HPC).
Where [2] appears, read: dose: 200.0 mg/kg/injection, schedule: Q01DX005 (ip), vehicle: Klucel (hydroxypropylcellulose) (HPC).
The mark [3] stands for this setting: dose: 200.0 mg/kg/injection, schedule: Q01DX009 (ip), vehicle: saline with Tween-80.
The mark [4] stands for this setting: dose: 60.0 mg/kg/injection, schedule: Q01DX005 (ip), vehicle: Klucel (hydroxypropylcellulose) (HPC).
Setting [5] is: dose: 120.0 mg/kg/injection, schedule: Q01DX005 (ip), vehicle: Klucel (hydroxypropylcellulose) (HPC).
The mark [6] stands for this setting: dose: 100.0 mg/kg/injection, schedule: Q01DX009 (ip), vehicle: saline with Tween-80.
Where [7] appears, read: dose: 100.0 mg/kg/injection, schedule: Q01DX005 (ip), vehicle: saline with Tween-80.
Setting [8] is: dose: 200.0 mg/kg/injection, schedule: Q01DX005 (ip), vehicle: saline with Tween-80.
The mark [9] stands for this setting: dose: 2.0 mg/kg/injection, schedule: Q01DX005 (ip), vehicle: Klucel (hydroxypropylcellulose) (HPC).
[10] abbreviates: dose: 4.0 mg/kg/injection, schedule: Q01DX005 (ip), vehicle: Klucel (hydroxypropylcellulose) (HPC).
The mark [11] stands for this setting: dose: 400.0 mg/kg/injection, schedule: Q01DX009 (ip), vehicle: saline with Tween-80.
The mark [12] stands for this setting: dose: 240.0 mg/kg/injection, schedule: Q01DX005 (ip), vehicle: Klucel (hydroxypropylcellulose) (HPC).

`COc1ccc2c3c(ccc2c1)C(=O)/C(=C\O)CC3`: the survivor count is listed as 4 of 5 under setting [1] and 0 of 5 under setting [2].
With `Nc1c(Cl)c(Cl)c(Br)c(Cl)c1Cl`, under setting [3], the survivor count is reported as 6 of 6.
For the molecule `O=C(Nc1ccc(C(=O)c2ccccc2)cc1)Nc1ccc(Cl)c(Cl)c1`, the survivor count is, setting by setting: under setting [4], 6 of 6; under setting [5], 5 of 6.
`CCN(CC)CC(C)C1NS(=O)(=O)c2ccccc21` (configuration not stated): the survivor count by setting is: (dose: 12.5 mg/kg/injection, schedule: Q01DX009 (ip), vehicle: saline) 6 of 6; under setting [6], 6 of 6; under setting [3], 3 of 6.
`Cc1cc2c(cc1C)C(=O)c1c(C)ccc(C)c1C2=O`: the survivor count was 5 of 5 under setting [7] and 5 of 5 under setting [8].
For the molecule `CN1C(=O)Cn2c(n[nH]c(=O)c2=O)-c2cc(Cl)ccc21`, where the note is “dose: 200.0 mg/kg/injection, schedule: Q01DX009 (ip), vehicle: Klucel (hydroxypropylcellulose) (HPC)”, the survivor count is 4 of 6.
With `CC1=CC(=C2C(=O)c3ccccc3C2=O)C=C(C)N1CC#CCN1CCCCC1`, the survivor count is, setting by setting: under setting [4], 5 of 6; under setting [5], 4 of 6.
As to `CC12CC(=O)CC1(C)CC(=O)C2` (configuration not stated), the survivor count runs as follows: (dose: 100.0 mg/kg/injection, schedule: Q01DX009 (ip), vehicle: saline) 2 of 6; (dose: 200.0 mg/kg/injection, schedule: Q01DX009 (ip), vehicle: saline) 0 of 6.
As to `CN=C(N)c1ccc(N=C(N)c2ccc(N=C(N)c3ccc(N=C(O)c4cccc(C(O)=Nc5ccc(C(N)=Nc6ccc(C(N)=Nc7ccc(C(N)=NC)cc7)cc6)cc5)c4)cc3)cc2)cc1`, the T/C (dose: 100.0 mg/kg/injection, schedule: Q04DX003 (ip), vehicle: saline with Tween-80) is 127 % of control [4 of 6 alive]. In addition, the survivor count runs as follows: (dose: 200.0 mg/kg/injection, schedule: Q04DX003 (ip), vehicle: saline with Tween-80) 0 of 6; (dose: 400.0 mg/kg/injection, schedule: Q04DX003 (ip), vehicle: saline with Tween-80) 0 of 6.
In the case of `NS(=O)(=O)c1ccc(Nc2c3ccccc3nc3c([N+](=O)[O-])cccc23)cc1`, the survivor count reads like this: (dose: 60.0 mg/kg/injection, schedule: Q01DX005 (ip), vehicle: saline with Tween-80) 6 of 6; (dose: 120.0 mg/kg/injection, schedule: Q01DX005 (ip), vehicle: saline with Tween-80) 6 of 6.
For the molecule `C/C=C(\C)C(=O)OC1C(C)=C2C(C1OC(=O)CCCCC)C(C)(OC(C)=O)CC(OC(=O)CCC)C1(O)C2OC(=O)C1(C)O` (configuration not stated), the T/C is, setting by setting: (dose: 1.0 mg/kg/injection, schedule: Q01DX005 (ip), vehicle: Klucel (hydroxypropylcellulose) (HPC)) 128 [5 of 6 alive] and 130 % of control; under setting [9], 127 % of control; under setting [10], 135 % of control. Also, the survivor count reads like this: under setting [9], 6 of 6; under setting [10], 0 of 6; (dose: 8.0 mg/kg/injection, schedule: Q01DX005 (ip), vehicle: Klucel (hydroxypropylcellulose) (HPC)) 0 of 6.
Consider `Cc1cc(N/N=C/c2ccc3c(c2)OCO3)c2cc3c(cc2n1)OCO3`, for which the survivor count reads like this: (dose: 50.0 mg/kg/injection, schedule: Q01DX005 (ip), vehicle: Klucel (hydroxypropylcellulose) (HPC)) 6 of 6; under setting [1], 0 of 6; under setting [2], 0 of 6.
`[CH3][Sn]1([CH3])[O]C(=O)CC(CC(=O)O)C(=O)[O]1` (configuration not stated): the survivor count runs as follows: under setting [1], 1 of 5; under setting [2], 0 of 5.
As for `O=C(/C=C\c1ccc(NCc2ccc(C(=O)O)cc2)cc1)CCl`, under setting [6], the survivor count is 3 of 6.
For `CN=C(NC)c1ccc(NC(=O)Nc2cccc(NC(=O)Nc3ccc(C(=NC)NC)cc3)c2)cc1`, for the setting “dose: 6.25 mg/kg/injection, schedule: Q01DX005 (ip), vehicle: saline with Tween-80”, the T/C was 137 and 140 % of control. Besides, the survivor count reads like this: (dose: 50.0 mg/kg/injection, schedule: Q01DX005 (ip), vehicle: saline with Tween-80) 0 of 6; under setting [7], 0 of 6; under setting [8], 0 of 6.
As for `FC(F)(F)c1ccc(-c2ccc(OCCN3CCCC3)cc2)cc1`, the survivor count (dose: 100.0 mg/kg/injection, schedule: Q04DX003 (ip), vehicle: saline sonified) is 6 of 6 and the survivor count (dose: 200.0 mg/kg/injection, schedule: Q04DX003 (ip), vehicle: saline sonified) is given as 3 of 6.
For `Cc1c(O)c2c(c(O)c1Cc1ccc(C#N)cc1)C(=O)c1ccccc1C2=O`, the survivor count runs as follows: (dose: 12.5 mg/kg/injection, schedule: Q01DX009 (ip), vehicle: Klucel (hydroxypropylcellulose) (HPC)) 6 of 6; (dose: 25.0 mg/kg/injection, schedule: Q01DX009 (ip), vehicle: Klucel (hydroxypropylcellulose) (HPC)) 6 of 6; (dose: 50.0 mg/kg/injection, schedule: Q01DX009 (ip), vehicle: Klucel (hydroxypropylcellulose) (HPC)) 6 of 6; (dose: 100.0 mg/kg/injection, schedule: Q01DX009 (ip), vehicle: Klucel (hydroxypropylcellulose) (HPC)) 6 of 6.
Take `CN(C)c1ccc(/C=C/c2ccnc3ccc4ccccc4c23)cc1`: the survivor count under setting [11] is on record as 6 of 6.
Regarding `C/C=C1/CN2C3CC45c6ccccc6N(C)C4C2CC1C3C5O` (configuration not stated), the survivor count under setting [8] is 3 of 6.
Turning to `Fc1cccc(Cl)c1C(Nc1nncs1)Nc1nncs1`, the T/C was 128 and 130 % of control under setting [4]; 145 % of control [5 of 6 alive] under setting [5]. Besides, the survivor count (dose: 480.0 mg/kg/injection, schedule: Q01DX005 (ip), vehicle: Klucel (hydroxypropylcellulose) (HPC)) is given as 4 of 6.
For the molecule `Cc1cc(NN=O)nc(C)n1`, under “dose: 100.0 mg/kg/injection, schedule: Q01DX009 (ip), vehicle: water”, the T/C is 125 % of control.
For `CC1(C)C(=O)C2=C(OC3([Se]2)C(=O)C(C)(C)C(=O)C(C)(C)C3=O)C(C)(C)C1=O`, the survivor count under setting [12] is given as 1 of 6.
On to `COC(=O)/C=C/c1cc(=O)n2c(nc3ccccc32)s1`, for which the survivor count reads like this: under setting [4], 6 of 6; under setting [5], 5 of 6 and 6 of 6; under setting [12], 5 of 6 and 6 of 6.
With `CC(C)N(Cc1ccccc1)S(=O)(=O)c1n[nH]c(C(C)(C)C)n1`, the survivor count under setting [8] is 4 of 6.
Regarding `CC(=O)O[Si](C)(OC(C)=O)c1ccccc1`, the survivor count is, setting by setting: (dose: 50.0 mg/kg/injection, schedule: Q01DX009 (ip), vehicle: other) 6 of 6; (dose: 100.0 mg/kg/injection, schedule: Q01DX009 (ip), vehicle: other) 6 of 6; (dose: 200.0 mg/kg/injection, schedule: Q01DX009 (ip), vehicle: other) 5 of 6.
With `[Cl][Hg][c]1ccccc1N=Nc1ccccc1I`, the survivor count under setting [3] is listed as 6 of 6.
Turning to `CCC(O)C1(OC)C=CC(OC)O1` (configuration not stated), the survivor count (dose: 50.0 mg/kg/injection, schedule: Q01DX005 (ip), vehicle: saline) is recorded as 0 of 6; the survivor count (dose: 100.0 mg/kg/injection, schedule: Q01DX005 (ip), vehicle: saline) is recorded as 0 of 6; the survivor count (dose: 200.0 mg/kg/injection, schedule: Q01DX005 (ip), vehicle: saline) is 0 of 6.
Take `CCOC(=O)N(C)C(C)Cc1ccccc1` (configuration not stated): under setting [11], the survivor count is 3 of 6.
On to `Nc1cc(Cl)ccc1-c1ccccc1`, for which, under “dose: 400.0 mg/kg/injection, schedule: Q01DX009 (ip), vehicle: Klucel (hydroxypropylcellulose) (HPC)”, the survivor count was 1 of 6.
